Assay results taken from patent publication US6627648B1, “Pharmaceutical compositions and methods for use” (Targacept, Inc., priority 1999, dated 2003).
Structures were worked out from names or drawings and are uncertain.

test system: Rat brain synaptosomes; experiment: Neurotransmitter release from brain synaptosomes; format: cell-based; details: in the presence of 10 M of ligand; percentage of release obtained with 10 M (S)-(-)-nicotine or 300 M TMA; tested form: hemigalactarate
Method: Neurotransmitter release was measured using techniques similar to those previously published (Bencherif M, et al.:. JPET 279:1413-1421, 1996).
Rat brain synaptosomes were prepared as follows: Female Sprague Dawley rats (100-200 g) were killed by decapitation after anesthesia with 70% CO2. Brains are dissected, and hippocampus, striatum, and thalamus isolated, and homogenized in 0.32 M sucrose containing 5 mM HEPES pH 7.4 using a glass/glass homogenizer. The tissue was then centrifuged for 1000×g for 10 minutes and the pellet discarded. The supernatant was centrifuged at 12000×g for 20 minutes. The resultant pellet was re-suspended in perfusion buffer (128 mM NaCl, 1.2 mM KH2PO4, 2.4 mM KCl, 3.2 mM CaCl2, 1.2 mM MgSO4, 25 mM HEPES, 1 mM Ascorbic acid, 0.01 mM pargyline HCl and 10 mM glucose pH 7.4) and centrifuged for 15 minutes at 25000×g. The final pellet was resuspended in perfusion buffer and placed in a water bath (37° C.) for 10 minutes. Radiolabeled neurotransmitter is added (30 L^3H DA, 20 L^3H NE, 10 L^3H glutamate) to achieve a final concentration of 100 nM, vortexed and placed in a water bath for additional 10 minutes. Tissue-loaded filters is placed onto 11-mm diameter Gelman A/E filters on an open-air support. After a 10-minute wash period, fractions are collected to establish the basal release and agonist applied in the perfusion stream. Further fractions were collected after agonist application to re-establish the baseline. The perfusate was collected directly into scintillation vials and released radioactivity was quantified using conventional liquid scintillation techniques. Release of neurotransmitter was determined in the presence of 10 M of various ligands and was expressed as a percentage of release obtained with a concentration of 10 M (S)-(−)-nicotine or 300 MTMA resulting in maximal effects.

Row | Structure (SMILES) | neurotransmitter release [%]
1 | CCNCCCOc1cccnc1 | 57
2 | c1cncc(OCCCNC2CC2)c1 | 51
3 | CNCCCOc1cncc(Cl)c1 | 100
4 | CNCCCCOc1cccnc1 | 56
5 | CNCCCOc1ccc(C)nc1 | 77
6 | CNCCCOc1cccc([N+](=O)[O-])c1 | 67
7 | CNCCCOc1cccc(N(C)C)c1 | 16
8 | CN(C)CCCCOc1cccnc1 | 24
9 | NCCCCOc1cccnc1 | 100
10 | CNC(C)CCOc1cncc(Cl)c1 (stereo not drawn) | 30
11 | CN(C)CCCOc1cccnc1 | 32
12 | CNC(C)CCOc1cccnc1 (stereo not drawn) | 49
13 | CNCCCOc1cncc(OCc2ccccc2)c1 | 38
14 | NCCCOc1cccc(N)c1 | 14
15 | CNCCCOc1ccc2c(c1)OCO2 | 41
16 | CNCCCOc1cccnc1C | 69
17 | CNCCCOc1cncc(OC)c1 | 54

same assay, conditions: in the presence of 10 M of ligand; percentage of release obtained with 10 M (S)-(-)-nicotine or 300 M TMA; tested form: monogalactarate

Row | Structure (SMILES) | neurotransmitter release [%]
18 | CNCCCOc1cncc(OC(C)C)c1 | 36
